Results published in publication doi:10.1101/2021.12.08.471779.
Where a chain is given by its changes, count along the chain named. No constants are given. Whether binding was seen depends on the method and setting. Binding seen in cells or lysates may run through a third protein. Some entries that bind do so weakly or less than the wild type.

The chains behind the UniProt entries cited, without tags or fusion partners. Where a name states a change or a piece, a line headed by the entry shows the natural chain unless it says otherwise.
UniProt P02929, whole entry, looked up, stated change not applied: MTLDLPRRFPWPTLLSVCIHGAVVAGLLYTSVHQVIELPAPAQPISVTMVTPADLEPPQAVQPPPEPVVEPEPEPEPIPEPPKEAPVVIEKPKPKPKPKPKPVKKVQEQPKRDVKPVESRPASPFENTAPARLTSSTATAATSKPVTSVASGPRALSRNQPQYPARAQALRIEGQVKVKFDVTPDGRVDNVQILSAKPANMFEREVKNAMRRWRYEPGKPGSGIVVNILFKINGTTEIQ

Tests used:
Experiment in all cases: cross-linking
[1] = target: T1, FepA D618C (Escherichia coli K-12) (UniProt P05825)
T1 sequence: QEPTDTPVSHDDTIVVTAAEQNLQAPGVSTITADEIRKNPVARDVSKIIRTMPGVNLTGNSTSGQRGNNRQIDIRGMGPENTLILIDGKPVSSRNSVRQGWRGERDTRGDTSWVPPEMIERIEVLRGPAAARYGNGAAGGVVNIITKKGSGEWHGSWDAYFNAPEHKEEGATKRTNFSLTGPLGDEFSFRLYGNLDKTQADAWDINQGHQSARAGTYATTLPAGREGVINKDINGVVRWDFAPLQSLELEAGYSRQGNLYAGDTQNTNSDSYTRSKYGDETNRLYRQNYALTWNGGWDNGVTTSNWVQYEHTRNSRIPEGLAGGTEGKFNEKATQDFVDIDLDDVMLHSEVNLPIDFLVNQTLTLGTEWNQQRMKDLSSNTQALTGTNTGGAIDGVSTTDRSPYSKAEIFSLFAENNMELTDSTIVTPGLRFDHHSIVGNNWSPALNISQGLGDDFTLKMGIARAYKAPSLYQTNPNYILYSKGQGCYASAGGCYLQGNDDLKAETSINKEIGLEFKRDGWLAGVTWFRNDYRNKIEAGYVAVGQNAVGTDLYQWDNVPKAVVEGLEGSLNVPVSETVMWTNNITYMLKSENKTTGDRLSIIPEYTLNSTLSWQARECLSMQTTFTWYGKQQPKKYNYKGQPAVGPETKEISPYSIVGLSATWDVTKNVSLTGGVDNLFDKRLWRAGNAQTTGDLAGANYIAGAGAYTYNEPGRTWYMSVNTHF

[2] = target: T2, FepA E152C (Escherichia coli K-12) (UniProt P05825)
T2 sequence: T1 sequence with E152C, C618D

[3] = target: T3, FepA D664C (Escherichia coli K-12) (UniProt P05825)
T3 sequence: T1 sequence with C618D, D664C

| Substance | binding [1] | binding [2] | binding [3] |
| --- | --- | --- | --- |
| TonB C18G A209C (from UniProt P02929 1-239) | no binding | no binding | no binding |
| TonB C18G H20A R204C (from UniProt P02929 1-239) | – | binds | – |
| TonB C18G R204C (from UniProt P02929 1-239) | – | binds | – |
| TonB C18G N208C (from UniProt P02929 1-239) | – | binds weakly | – |
| TonB C18G Q160C (from UniProt P02929 1-239) | no binding | – | no binding |
| TonB C18G V206C (from UniProt P02929 1-239) | no binding | no binding | no binding |
